Assay: Aerosol delivery of antibiotics, nebulizer at distal Y position, three nebulizers (second experiment)
Conditions: T-BIRD, PORTEX nebulizer, continuous, humidity ON; percentage of nebulizer charge

SMILES: CN[C@H](CC(C)C)C(=O)N[C@H]1C(=O)N[C@@H](CC(N)=O)C(=O)N[C@H]2C(=O)N[C@H]3C(=O)N[C@H](C(=O)N[C@H](C(=O)O)c4cc(O)cc(O)c4-c4cc3ccc4O)[C@H](O)c3ccc(c(Cl)c3)Oc3cc2cc(c3O[C@@H]2O[C@H](CO)[C@@H](O)[C@H](O)[C@H]2O[C@H]2C[C@](C)(N)[C@H](O)[C@H](C)O2)Oc2ccc(cc2Cl)[C@H]1O [vancomycin]
- % of EXPIRATORY FILT.: 7.9%

Source: patent US8245708B2, “Methods, devices and formulations for targeted endobronchial therapy” (The Research Foundation of State University of New York, priority 2002, dated 2012)
